According to publication doi:10.1101/2021.12.22.473884:
These are yes or no findings as the source states them, for the method shown. In cells and extracts the contact can be indirect. Some results given as binding are weak or reduced against the parent protein; the word gives no strength. Tags and fused reporters may be left off the sequences shown.

Key:
Assay in all cases: co-IP
Flag-Fbxo7 L250P (human) = biological target: T1, Flag-Fbxo7 L250P (human) (UniProt Q9Y3I1)
T1 sequence: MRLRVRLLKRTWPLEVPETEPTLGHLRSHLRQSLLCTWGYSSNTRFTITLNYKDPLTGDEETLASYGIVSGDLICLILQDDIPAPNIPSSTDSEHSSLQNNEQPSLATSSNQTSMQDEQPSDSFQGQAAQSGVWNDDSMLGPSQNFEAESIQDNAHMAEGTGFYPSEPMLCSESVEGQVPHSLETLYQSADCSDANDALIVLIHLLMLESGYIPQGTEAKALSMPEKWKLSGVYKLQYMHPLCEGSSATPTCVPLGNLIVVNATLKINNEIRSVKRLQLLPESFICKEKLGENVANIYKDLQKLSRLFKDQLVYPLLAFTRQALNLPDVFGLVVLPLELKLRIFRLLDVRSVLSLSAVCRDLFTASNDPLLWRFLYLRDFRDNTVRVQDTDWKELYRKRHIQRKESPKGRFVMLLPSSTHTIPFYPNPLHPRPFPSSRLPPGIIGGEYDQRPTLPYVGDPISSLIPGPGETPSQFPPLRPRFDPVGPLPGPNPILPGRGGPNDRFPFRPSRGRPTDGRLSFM

[1] = biological target: T2, FLAG-Fbxo7 (aa169-398) (human) (UniProt Q9Y3I1)
T2 sequence: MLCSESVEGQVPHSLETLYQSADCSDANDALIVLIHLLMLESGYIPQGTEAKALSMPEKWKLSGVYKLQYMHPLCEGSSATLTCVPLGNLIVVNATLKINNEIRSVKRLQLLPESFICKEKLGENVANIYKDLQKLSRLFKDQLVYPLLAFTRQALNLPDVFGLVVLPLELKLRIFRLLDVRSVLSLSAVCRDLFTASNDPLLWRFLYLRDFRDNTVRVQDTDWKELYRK

FLAG-tagged WT PI31 = biological target: T3, FLAG-tagged WT PI31 (UniProt Q92530)
T3 sequence: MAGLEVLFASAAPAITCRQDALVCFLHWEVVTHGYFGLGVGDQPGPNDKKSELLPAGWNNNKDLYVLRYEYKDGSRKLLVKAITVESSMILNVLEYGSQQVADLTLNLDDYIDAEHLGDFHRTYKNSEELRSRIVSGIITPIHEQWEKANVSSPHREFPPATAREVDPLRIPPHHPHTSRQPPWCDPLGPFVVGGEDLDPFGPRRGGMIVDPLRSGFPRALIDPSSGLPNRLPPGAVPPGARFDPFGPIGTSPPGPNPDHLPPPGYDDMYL

Fbxo7 R498X (human) = biological target: T4, Fbxo7 R498X (human) (UniProt Q9Y3I1)
T4 sequence: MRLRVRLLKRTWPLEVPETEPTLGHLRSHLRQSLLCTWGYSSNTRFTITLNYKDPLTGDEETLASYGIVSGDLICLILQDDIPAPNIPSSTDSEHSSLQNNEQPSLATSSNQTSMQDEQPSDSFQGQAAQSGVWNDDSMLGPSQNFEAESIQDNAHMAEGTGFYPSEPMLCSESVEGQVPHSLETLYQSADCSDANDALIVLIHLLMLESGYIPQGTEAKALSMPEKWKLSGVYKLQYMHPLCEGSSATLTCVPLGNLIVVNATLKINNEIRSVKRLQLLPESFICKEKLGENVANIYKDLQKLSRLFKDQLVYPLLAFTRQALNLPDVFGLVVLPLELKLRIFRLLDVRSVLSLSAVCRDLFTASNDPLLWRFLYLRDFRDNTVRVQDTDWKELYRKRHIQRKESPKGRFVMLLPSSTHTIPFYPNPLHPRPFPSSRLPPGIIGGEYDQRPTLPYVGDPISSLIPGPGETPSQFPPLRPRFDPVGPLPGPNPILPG

[2] = biological target: T5, FLAG-tagged PI31ΔC (aa1-189) (UniProt Q92530)
T5 sequence: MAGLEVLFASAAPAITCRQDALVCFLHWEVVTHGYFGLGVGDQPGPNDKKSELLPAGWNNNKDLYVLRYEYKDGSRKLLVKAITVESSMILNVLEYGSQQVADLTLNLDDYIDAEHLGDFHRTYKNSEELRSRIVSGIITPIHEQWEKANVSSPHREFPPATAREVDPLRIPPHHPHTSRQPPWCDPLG

Fbxo7 R378G (human) = biological target: T6, Fbxo7 R378G (human) (UniProt Q9Y3I1)
T6 sequence: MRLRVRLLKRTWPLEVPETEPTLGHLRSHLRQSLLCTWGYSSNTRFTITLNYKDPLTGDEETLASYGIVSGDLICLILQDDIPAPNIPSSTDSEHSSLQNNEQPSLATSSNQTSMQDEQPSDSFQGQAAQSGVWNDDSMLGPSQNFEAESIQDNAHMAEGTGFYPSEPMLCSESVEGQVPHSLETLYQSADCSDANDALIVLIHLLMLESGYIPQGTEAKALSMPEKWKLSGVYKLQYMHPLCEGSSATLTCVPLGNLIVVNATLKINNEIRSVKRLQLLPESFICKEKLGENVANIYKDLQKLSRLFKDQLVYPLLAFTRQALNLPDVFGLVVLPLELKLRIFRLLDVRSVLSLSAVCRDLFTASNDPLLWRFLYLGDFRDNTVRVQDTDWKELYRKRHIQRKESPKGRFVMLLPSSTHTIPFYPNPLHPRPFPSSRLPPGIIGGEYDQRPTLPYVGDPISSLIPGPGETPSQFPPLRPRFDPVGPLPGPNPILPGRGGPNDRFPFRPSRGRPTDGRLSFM

Measured: binding

B1: MiD49-Myc (protein, UniProt Q96C03 1-454)
chain: MAEFSQKRGKRRSDEGLGSMVDFLLANARLVLGVGGAAVLGIATLAVKRFIDRATSPRDEDDTKADSWKELSLLKATPHLQPRPPPAALSQPVLPLAPSSSAPEGPAETDPEVTPQLSSPAPLCLTLQERLLAFERDRVTIPAAQVALAKQLAGDIALELQAYFRSKFPELPFGAFVPGGPLYDGLQAGAADHVRLLVPLVLEPGLWSLVPGVDTVARDPRCWAVRRTQLEFCPRGSSPWDRFLVGGYLSSRVLLELLRKALAASVNWPAIGSLLGCLIRPSMASEELLLEVQHERLELTVAVLVAVPGVDADDRLLLAWPLEGLAGNLWLQDLYPVEAARLRALDDHDAGTRRRLLLLLCAVCRGCSALGQLGRGHLTQVVLRLGEDNVDWTEEALGERFLQALELLIGSLEQASLPCHFNPSVNLFSSLREEEIDDIGYALYSGLQEPEGLL
binds: all assays above
